## Library screen at single concentrations

Protein sequences, listed by entry. Tags and fused reporters are not part of them. Residues count along the entry.
UniProt Q4DA54, 1-478: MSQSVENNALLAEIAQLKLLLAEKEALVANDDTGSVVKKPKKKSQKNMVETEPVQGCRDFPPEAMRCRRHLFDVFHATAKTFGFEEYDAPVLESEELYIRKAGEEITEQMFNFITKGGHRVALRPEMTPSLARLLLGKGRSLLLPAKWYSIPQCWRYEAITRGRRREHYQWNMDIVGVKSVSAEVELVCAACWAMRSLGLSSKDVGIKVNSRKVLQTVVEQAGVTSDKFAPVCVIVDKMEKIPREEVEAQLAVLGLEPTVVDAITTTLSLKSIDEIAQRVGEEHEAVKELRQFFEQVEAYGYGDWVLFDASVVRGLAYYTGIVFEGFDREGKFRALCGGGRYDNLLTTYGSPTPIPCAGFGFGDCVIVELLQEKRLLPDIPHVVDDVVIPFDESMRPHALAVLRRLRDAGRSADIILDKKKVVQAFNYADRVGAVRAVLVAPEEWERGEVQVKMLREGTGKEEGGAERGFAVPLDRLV
UniProt P9WNZ1, whole entry: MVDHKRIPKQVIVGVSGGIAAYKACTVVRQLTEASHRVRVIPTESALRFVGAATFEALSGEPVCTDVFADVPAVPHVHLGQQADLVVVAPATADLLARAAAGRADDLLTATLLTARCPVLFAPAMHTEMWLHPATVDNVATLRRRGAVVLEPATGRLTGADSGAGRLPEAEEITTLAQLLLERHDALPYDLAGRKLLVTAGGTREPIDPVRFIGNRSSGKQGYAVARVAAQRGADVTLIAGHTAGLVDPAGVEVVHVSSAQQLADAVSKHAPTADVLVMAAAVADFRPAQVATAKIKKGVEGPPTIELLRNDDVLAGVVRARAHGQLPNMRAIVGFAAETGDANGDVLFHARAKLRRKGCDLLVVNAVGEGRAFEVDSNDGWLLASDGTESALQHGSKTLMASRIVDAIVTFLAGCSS
UniProt P9WPC5, whole entry: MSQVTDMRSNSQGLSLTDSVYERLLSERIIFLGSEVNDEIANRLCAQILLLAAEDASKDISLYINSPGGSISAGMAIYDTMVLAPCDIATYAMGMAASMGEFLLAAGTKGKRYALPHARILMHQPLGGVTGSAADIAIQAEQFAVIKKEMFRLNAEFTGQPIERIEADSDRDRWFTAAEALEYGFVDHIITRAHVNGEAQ
UniProt P9WPC3, whole entry partner: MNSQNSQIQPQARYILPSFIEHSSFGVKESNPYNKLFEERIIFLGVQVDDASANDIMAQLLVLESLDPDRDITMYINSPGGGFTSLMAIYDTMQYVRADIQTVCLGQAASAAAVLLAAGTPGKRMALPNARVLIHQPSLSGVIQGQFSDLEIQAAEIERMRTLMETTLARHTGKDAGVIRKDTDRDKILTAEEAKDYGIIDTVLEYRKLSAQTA
UniProt Q8IDJ8, 1-583: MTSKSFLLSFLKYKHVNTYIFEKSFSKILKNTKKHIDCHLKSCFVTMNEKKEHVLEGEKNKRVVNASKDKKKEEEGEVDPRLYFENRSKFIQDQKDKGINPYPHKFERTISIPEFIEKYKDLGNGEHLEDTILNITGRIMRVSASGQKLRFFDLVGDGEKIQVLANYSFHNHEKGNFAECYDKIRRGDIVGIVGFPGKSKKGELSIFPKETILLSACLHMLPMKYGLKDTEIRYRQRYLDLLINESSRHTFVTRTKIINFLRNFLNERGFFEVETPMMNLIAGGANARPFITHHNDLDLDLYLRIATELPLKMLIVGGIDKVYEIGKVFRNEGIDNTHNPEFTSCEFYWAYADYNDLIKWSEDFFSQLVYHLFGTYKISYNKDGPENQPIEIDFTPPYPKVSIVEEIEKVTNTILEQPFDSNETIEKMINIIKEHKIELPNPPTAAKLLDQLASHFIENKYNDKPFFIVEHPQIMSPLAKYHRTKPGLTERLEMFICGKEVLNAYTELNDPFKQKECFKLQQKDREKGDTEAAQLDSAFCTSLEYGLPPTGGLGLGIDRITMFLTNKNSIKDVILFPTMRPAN

From ChEMBL document CHEMBL3988442, “University of Dundee, Small-Polar-MMV Screening Library” (2021).

Leishmania in macrophages: 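Cell assay of Leishmania donovani living inside macrophages; the read-out is not stated. Tested at 30 µM. Direction is inferred from retests: higher values go with stronger inhibition. Of about 69,000 compounds tested this way, about 1,000 (1.5%) reached 50% or more in at least one test.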
TcHisRS: 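Enzyme assay of histidyl-tRNA synthetase; the read-out is not stated. Target: Histidine-tRNA ligase, Trypanosoma cruzi CL Brener (UniProt Q4DA54). Tested at 30 µM. The record gives no direction; compounds that gave an IC50 in retests scored well above the rest, so higher reads as stronger inhibition. Of about 69,000 compounds tested this way, about 31 (0.045%) reached 50% or more in at least one test.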
CoaBC: 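Coenzyme A biosynthesis protein CoaBC, Mycobacterium tuberculosis (UniProt P9WNZ1). Enzyme assay of CoaBC with a phosphate dye (Biomol Green) read at 650 nm. Concentration: 30 µM. Higher reads as stronger inhibition, judged from the few compounds that gave an IC50. Most strong results did not repeat in a second test. Of about 67,000 compounds tested this way, about 40 (0.06%) reached 50% or more in at least one test.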
ClpP1P2: 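ClpP1P2, Mycobacterium tuberculosis (UniProt P9WPC5 and UniProt P9WPC3). Protease assay of ClpP1P2, read by the AMC dye that it sets free. Compounds at 50 µM. Direction is inferred from only a few compounds that gave an IC50; most scored high, so higher reads as stronger inhibition. Most other retested compounds had strongly negative values. About 69,000 compounds were tested under these conditions; 0.015% (about 10) showed 50% or more at least once.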
PfKRS1: 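Enzyme assay of the cytosolic lysyl-tRNA synthetase in 384-well plates, read by luminescence. Target: Lysine-tRNA ligase, Plasmodium falciparum 3D7 (UniProt Q8IDJ8). Tested at 30 µM. Higher reads as stronger inhibition, judged from the few compounds that gave an IC50. About 69,000 compounds were tested under these conditions; 0.071% (about 49) showed 50% or more at least once.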

Results are given as percent effect. The controls that fix the scale are not given in the record; negative values are as filed. The compounds are a random part of those screened. Two or more numbers in one place are separate tests of the same structure; such repeats can differ widely.

Compound: CC(=O)N1CCCC1c1cccc(C)c1C (centres undefined)
Leishmania in macrophages: 24.12
TcHisRS: 1.948
CoaBC: -3.99
ClpP1P2: -0.9374
PfKRS1: -1.624

Compound: Cc1nc(CN2CCN(C(=O)c3c(C)noc3C)CC2)cs1
Leishmania in macrophages: 22.17
TcHisRS: -0.8333
CoaBC: 0.6316
ClpP1P2: -7.302
PfKRS1: -0.2583

Compound: CC(C)c1nc(COc2cccc3c2NC(=O)CO3)cs1
Leishmania in macrophages: 1.692
TcHisRS: -0.4926
CoaBC: 3.481
ClpP1P2: -11.42
PfKRS1: 0.8431

Compound: Nc1nc2nc(C3CCCN(C(=O)c4cncs4)C3)ccc2s1 (centres undefined)
Leishmania in macrophages: 1.969
TcHisRS: 6.383
CoaBC: -0.4902
ClpP1P2: -2.949
PfKRS1: 0.7756

Compound: Cc1ncsc1CN(C)C(=O)C(CC(C)C)N1CCCCC1=O (centres undefined)
Leishmania in macrophages: 21.25
TcHisRS: -1.571
CoaBC: 3.212
ClpP1P2: -6.755
PfKRS1: 4.067

Compound: O=C(O)c1cccc(CN2CCCC(c3ccn[nH]3)C2)c1 (centres undefined)
Leishmania in macrophages: 2.223
TcHisRS: 1.149
CoaBC: 1.914
ClpP1P2: 20.59
PfKRS1: 0.2136

Compound: CCOC(=O)[C@@H]1[C@@H](O)C(=O)N(C)C12CCN(C(=O)c1ccco1)CC2
Leishmania in macrophages: 11.95
TcHisRS: 1.156
CoaBC: -0.1227
ClpP1P2: 1.532
PfKRS1: 4.351

Compound: Clc1ccc(C2(NCc3noc(C4CC4)n3)CCC2)cc1
Leishmania in macrophages: 21.86
TcHisRS: 0
CoaBC: -1.992
ClpP1P2: -11.86
PfKRS1: 2.885

Compound: CC(=O)NCCc1cc2nc(-c3ccncc3)ccn2n1
Leishmania in macrophages: 15.74
TcHisRS: 1.13
CoaBC: 7.99
ClpP1P2: -5.557
PfKRS1: 0.7473

Compound: Cn1ncc2c1CCCC2NCc1cccc2c1OCCCO2 (centres undefined)
Leishmania in macrophages: 30.56
TcHisRS: 3.38
CoaBC: 9.796
ClpP1P2: 2.226
PfKRS1: 4.231

Compound: COc1ccnc(N2CCN(C(=O)CCc3nccs3)CC2)n1
Leishmania in macrophages: 25
TcHisRS: 2.5
CoaBC: -2.772
ClpP1P2: -6.55
PfKRS1: 6.429

Compound: Cc1cccc(CNC2CC(=O)N(CCc3cccc(Cl)c3)C2)n1 (centres undefined)
Leishmania in macrophages: -2.266
TcHisRS: 4.02
CoaBC: 6.3
ClpP1P2: 0.9866
PfKRS1: -0.5622

Compound: Cc1[nH]c2ccccc2c1-c1ccnc(N[C@@H](C)CO)n1
Leishmania in macrophages: -7.402 and -12.48
TcHisRS: 9.04
CoaBC: 3.735
ClpP1P2: 2.744
PfKRS1: 5.823

Compound: CN(Cc1cc(C2CC2)on1)C(=O)CN1CC(c2ccccc2)CC1=O (centres undefined)
Leishmania in macrophages: -14.18
TcHisRS: -1.064
CoaBC: 3.614
ClpP1P2: 2.188
PfKRS1: 8.988

Compound: CC(CS(C)(=O)=O)N(C(=O)Nc1cc(F)ccc1Cl)C1CC1 (centres undefined)
Leishmania in macrophages: -0.5645
TcHisRS: 1.724
CoaBC: 2.554
ClpP1P2: 12.56
PfKRS1: 3.879

Compound: Cc1nonc1CN(C)Cc1cnn(-c2ccc(Cl)cc2)c1
Leishmania in macrophages: 8.929
TcHisRS: 2.308
CoaBC: -5.938
ClpP1P2: -12.78
PfKRS1: 0.6247

Compound: CC(C)(C)OC(=O)N1CCC[C@H](NCC2CCOCC2)C1
Leishmania in macrophages: 1.241
TcHisRS: 1.299
CoaBC: 9.512
ClpP1P2: 19.37
PfKRS1: 3.778

Compound: c1ccc2sc(CN3CCOC(Cn4cccn4)C3)nc2c1 (centres undefined)
Leishmania in macrophages: 9.966
TcHisRS: 6.015
CoaBC: -1.305
ClpP1P2: -1.955
PfKRS1: -0.6261

Compound: CNC(=O)CN1CCC12CCN(C(=O)Cc1ccccc1)C2 (centres undefined)
TcHisRS: 4.202
CoaBC: 9.939
ClpP1P2: 1.679
PfKRS1: -3.084

Compound: CC(C)(C)CCNC(=O)c1ccc(Cl)c(NS(C)(=O)=O)c1
Leishmania in macrophages: 25.79
TcHisRS: 10.71
CoaBC: -0.9804
ClpP1P2: 1.877
PfKRS1: 7.066

The last 2 entries again:

* CNC(=O)CN1CCC12CCN(C(=O)Cc1ccccc1)C2 (centres undefined) | TcHisRS: 4.202%; CoaBC: 9.939%; ClpP1P2: 1.679%; PfKRS1: -3.084%
* CC(C)(C)CCNC(=O)c1ccc(Cl)c(NS(C)(=O)=O)c1 | Leishmania in macrophages: 25.79%; TcHisRS: 10.71%; CoaBC: -0.9804%; ClpP1P2: 1.877%; PfKRS1: 7.066%